According to the supplement of paper PMC10338343:
± gives the standard deviation. This is a selection; strong and weak results do not stand in their true shares. Many of these values have a large error.

Tests used:
[1] = system: MILI (PIWIL2) piRISC loaded with piRNA #1 (26 nt); test: pre-steady-state target cleavage rate (min^-1); higher = faster piRNA-guided slicing of the target; settings: guide: piRNA #1 5'p-UGAGGUAGUAGGUUGUAUAGUAUCCA; auxiliary factor: 500 nM mouse GTSF1
Summary of the method: (§1)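 Active affinity-purified piRISC (1 nM) loaded with one synthetic guide was mixed with a transcribed, DNA-blocked target RNA library (0.1 nM), with or without 500 nM GTSF1 partner protein, in HEPES–potassium acetate buffer at 33 °C for 0–8 or 0–960 min. Uncleaved targets were sequenced, normalised to depth and to weakly complementary targets, and pooled across three trials, with k3 capped at 0.0001 min^-1. The pre-steady-state cleavage rate was determined with a burst-and-steady-state fit.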

[2] = system: EfPiwi piRISC loaded with piRNA #1 (26 nt); test: pre-steady-state target cleavage rate (min^-1); guide: piRNA #1 5'p-UGAGGUAGUAGGUUGUAUAGUAUCCA; MIWI and MILI are mouse PIWI proteins and EfPiwi is from a freshwater sponge; tags in brackets are library labels; higher = faster piRNA-guided slicing of the target; settings: auxiliary factor: 500 nM Ephydatia muelleri Gtsf1
Summary of the method: as §1

## GGAGACCUUACUAUACAAGCUACUACCACA
[1]
  pre-steady-state target cleavage rate: 0.266 ± 0.023
[2]
  pre-steady-state target cleavage rate: 0.00275 ± 0.0027

## GGAGACCUAUGAUAUGUUGCUACUUCCACA
[1]
  pre-steady-state target cleavage rate: < 0.0001
[2]
  pre-steady-state target cleavage rate: 0.00021 ± 0.012

## GGAGACCUUACUAUACAUCCUACAACCUCA
[1]
  pre-steady-state target cleavage rate: 0.214 ± 0.019
[2]
  pre-steady-state target cleavage rate: 0.00333 ± 0.0044

## GGAGACCAUACUAAACAACCUAGUACCUCA
[1]
  pre-steady-state target cleavage rate: 0.0362 ± 0.0083
[2]
  pre-steady-state target cleavage rate: 0.00435 ± 0.0053

## GGAGACCUAUGAUAUCAUCCUACAACCUCA
[1]
  pre-steady-state target cleavage rate: 0.00348 ± 0.003
[2]
  pre-steady-state target cleavage rate: 0.000203 ± 0.01

## GGAGACCUAACUAUACAACCUUCUUCCUCA
[1]
  pre-steady-state target cleavage rate: 0.00217 ± 0.0075
[2]
  pre-steady-state target cleavage rate: 0.00182 ± 0.0056

## GGAGACCUAUCUAUACAACCUAGCUACCUCA
[1]
  pre-steady-state target cleavage rate: 0.0218 ± 0.0062
[2]
  pre-steady-state target cleavage rate: 0.00165 ± 0.0041

## GGAGUGCAUACUAUACAUCCUACUACCUCA
[1]
  pre-steady-state target cleavage rate: 0.313 ± 0.015
[2]
  pre-steady-state target cleavage rate: 0.0107 ± 0.0041

## GGAGACCUUACUAUUCAUCCUACUACCUCA
[1]
  pre-steady-state target cleavage rate: 0.231 ± 0.018
[2]
  pre-steady-state target cleavage rate: 0.00166 ± 0.0038

## GGAGACCUAUGAUAUGUACCUAUCUACCUCA
[1]
  pre-steady-state target cleavage rate: 0.000279 ± 0.013
[2]
  pre-steady-state target cleavage rate: 0.000133 ± 0.018

## GGAGACGAUACUAUUCAACCUUCUACCUCA
[1]
  pre-steady-state target cleavage rate: 0.0105 ± 0.0025
[2]
  pre-steady-state target cleavage rate: 0.00443 ± 0.0025

## GGAGACGAUUCUAAACAACCUACUACCUCA
[1]
  pre-steady-state target cleavage rate: 0.168 ± 0.012
[2]
  pre-steady-state target cleavage rate: 0.00926 ± 0.0045

## GGAGACCUAUGAUUACAAGGAACUACCUCA
[1]
  pre-steady-state target cleavage rate: 0.000142 ± 0.019
[2]
  pre-steady-state target cleavage rate: 0.000365 ± 0.0083

## GGAGACCUAUGAUAUGUACCUACUACCGUCA
[1]
  pre-steady-state target cleavage rate: 0.000265 ± 0.03
[2]
  pre-steady-state target cleavage rate: 0.000148 ± 0.018

## GGAGACCAUACUAUACAUGCUACUACCUCA
[1]
  pre-steady-state target cleavage rate: 0.0704 ± 0.01
[2]
  pre-steady-state target cleavage rate: 0.00201 ± 0.0032

## GGAGUCGAAACUAUACAACCUACUACCUCA
[1]
  pre-steady-state target cleavage rate: 0.18 ± 0.019
[2]
  pre-steady-state target cleavage rate: 0.0604 ± 0.021

## GGAGAGGAUAGUAUACAACGUACUACCUCA
[1]
  pre-steady-state target cleavage rate: 0.00214 ± 0.0048
[2]
  pre-steady-state target cleavage rate: 0.000966 ± 0.0042

## GGAGACCUAUCUAUACAACGUAGUACCUCA
[1]
  pre-steady-state target cleavage rate: 0.00772 ± 0.0031
[2]
  pre-steady-state target cleavage rate: 0.000874 ± 0.0066

## GGAGACCUAAUCUAUACAACCUACUACCUCA
[1]
  pre-steady-state target cleavage rate: 0.11 ± 0.024
[2]
  pre-steady-state target cleavage rate: 0.297 ± 0.099

## GGAGACCUAACUAUACAUCCUACUACCACA
[1]
  pre-steady-state target cleavage rate: 0.251 ± 0.046
[2]
  pre-steady-state target cleavage rate: 0.00275 ± 0.0047
